# Source: PubChem BioAssay AID1259254 (NCATS, 2017)
# Test: 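Gene knock-downs that lead to re-replication, shown by excess G2 DNA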 (primary screen)
# System: human HCT116 colorectal cancer cells
# Reagent: single siRNA against human genes
# Timing: 3 days
# Measured: 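Nuclei stained with Hoechst and imaged; cell-cycle phase assigned by DNA content; G2 share scaled per plate, non-targeting siRNA 0%, GMNN siRNA 100%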
# Reading the numbers: G2 robust z-score and G2 cells, % of GMNN control: higher = more G2 cells, more excess DNA replication
# Rule for the call: 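An siRNA counts as active if its G2 robust z-score lies at least 5 MADs above the screen median; here such calls match roughly 38% of GMNN control or more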
# The deposit covers about 59,000 reagents; shown is a part drawn at random. In the full data, about 1,550 (2.6%) are marked active. 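G2 share is only a proxy for re-replication; each gene was hit by three separate siRNAs, and active genes were retested.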 A number with no mark means an inactive call. The numbers tell different reagents against one gene apart. Not all columns of the deposit are shown. Not given: the amount of reagent.
Gene,reagent,G2 robust z-score,"G2 cells, % of GMNN control"
SLC7A6,1,-0.218,1.43
SLC7A6,2,0.77,8.38
SLC7A6,3,-0.525,-0.725
GPR180 (G protein-coupled receptor 180),1,0.0276,3.16
GPR180 (G protein-coupled receptor 180),2,-0.159,1.85
GPR180 (G protein-coupled receptor 180),3,0.735,8.14
TEX50 (testis expressed 50),1,-0.793,-2.61
TEX50 (testis expressed 50),2,0.0879,3.59
TEX50 (testis expressed 50),3,3.07,24.5
POLR2M (RNA polymerase II subunit M),1,-0.944,-3.68
POLR2M (RNA polymerase II subunit M),2,-0.498,-0.537
POLR2M (RNA polymerase II subunit M),3,0.34,5.36
TRGV5 (T cell receptor gamma variable 5),1,0.779,8.45
TRGV5 (T cell receptor gamma variable 5),2,0.582,7.06
TRGV5 (T cell receptor gamma variable 5),3,-0.931,-3.59
PAFAH1B1,1,1.48,13.4
PAFAH1B1,2,-0.741,-2.25
PAFAH1B1,3,2.17,18.2
CLTC (clathrin heavy chain),1,0.984,9.89
CLTC (clathrin heavy chain),2,1.05,10.3
CLTC (clathrin heavy chain),3,0.868,9.08
PHTF2 (putative homeodomain transcription factor 2),1,0.94,9.58
PHTF2 (putative homeodomain transcription factor 2),2,-1.62,-8.46
PHTF2 (putative homeodomain transcription factor 2),3,-0.298,0.869
STPG4 (sperm-tail PG-rich repeat containing 4),1,-0.707,-2.01
STPG4 (sperm-tail PG-rich repeat containing 4),2,0.433,6.02
STPG4 (sperm-tail PG-rich repeat containing 4),3,-0.805,-2.7
"NPRL2 (NPR2 like, GATOR1 complex subunit)",1,4.09,31.8
"NPRL2 (NPR2 like, GATOR1 complex subunit)",2,1.5,13.5
"NPRL2 (NPR2 like, GATOR1 complex subunit)",3,2.1,17.7
PRDX4 (peroxiredoxin 4),1,2.2,18.4
PRDX4 (peroxiredoxin 4),2,-0.55,-0.903
PRDX4 (peroxiredoxin 4),3,2.28,19
DSCR4 (Down syndrome critical region 4),1,2.05,17.4
DSCR4 (Down syndrome critical region 4),2,-0.101,2.26
DSCR4 (Down syndrome critical region 4),3,0.0432,3.27
HMGCLL1 (3-hydroxy-3-methylglutaryl-CoA lyase like 1),1,-0.775,-2.49
HMGCLL1 (3-hydroxy-3-methylglutaryl-CoA lyase like 1),2,0.476,6.32
HMGCLL1 (3-hydroxy-3-methylglutaryl-CoA lyase like 1),3,0.434,6.02
ZNF562 (zinc finger protein 562),1,-0.477,-0.387
ZNF562 (zinc finger protein 562),2,0.0192,3.1
ZNF562 (zinc finger protein 562),3,1.13,10.9
R3HDM4 (R3H domain containing 4),1,0.459,6.19
R3HDM4 (R3H domain containing 4),2,1.06,10.4
R3HDM4 (R3H domain containing 4),3,-0.188,1.65
ZNF225 (zinc finger protein 225),1,-0.447,-0.174
ZNF225 (zinc finger protein 225),2,1.72,15
ZNF225 (zinc finger protein 225),3,-0.666,-1.72
PEX12 (peroxisomal biogenesis factor 12),1,-0.0107,2.89
PEX12 (peroxisomal biogenesis factor 12),2,2.1,17.8
PEX12 (peroxisomal biogenesis factor 12),3,0.683,7.77
IRAK2 (interleukin 1 receptor associated kinase 2),1,1.22,11.6
IRAK2 (interleukin 1 receptor associated kinase 2),2,1.59,14.1
IRAK2 (interleukin 1 receptor associated kinase 2),3,-0.631,-1.47
ONECUT2 (one cut homeobox 2),1,-0.343,0.551
ONECUT2 (one cut homeobox 2),2,-1.12,-4.94
ONECUT2 (one cut homeobox 2),3,-1.55,-7.96
RFC2 (replication factor C subunit 2),1,1.06,10.4
RFC2 (replication factor C subunit 2),2,-0.337,0.599
RFC2 (replication factor C subunit 2),3,-0.977,-3.91
"PRG3 (proteoglycan 3, pro eosinophil major basic protein 2)",1,-0.74,-2.24
"PRG3 (proteoglycan 3, pro eosinophil major basic protein 2)",2,1.01,10.1
"PRG3 (proteoglycan 3, pro eosinophil major basic protein 2)",3,-0.617,-1.37
MEIS1-AS3 (MEIS1 antisense RNA 3),1,-0.0939,2.31
MEIS1-AS3 (MEIS1 antisense RNA 3),2,-0.985,-3.97
MEIS1-AS3 (MEIS1 antisense RNA 3),3,-0.323,0.693
CTSV (cathepsin V),1,-0.27,1.07
CTSV (cathepsin V),2,-0.667,-1.72
CTSV (cathepsin V),3,-1.69,-8.94
PLXDC1 (plexin domain containing 1),1,0.252,4.74
PLXDC1 (plexin domain containing 1),2,0.081,3.54
PLXDC1 (plexin domain containing 1),3,0.34,5.36
MRPS12 (mitochondrial ribosomal protein S12),1,3.51,27.6
MRPS12 (mitochondrial ribosomal protein S12),2,-0.944,-3.67
MRPS12 (mitochondrial ribosomal protein S12),3,-0.493,-0.502
GXYLT2 (glucoside xylosyltransferase 2),1,-1.03,-4.27
GXYLT2 (glucoside xylosyltransferase 2),2,0.666,7.65
GXYLT2 (glucoside xylosyltransferase 2),3,-0.659,-1.67
VEGFA (vascular endothelial growth factor A),1,-0.681,-1.82
VEGFA (vascular endothelial growth factor A),2,-0.778,-2.51
VEGFA (vascular endothelial growth factor A),3,-0.0194,2.83
CNOT12 (CCR4-NOT transcription complex subunit 12),1,-0.09,2.33
CNOT12 (CCR4-NOT transcription complex subunit 12),2,-0.588,-1.17
CNOT12 (CCR4-NOT transcription complex subunit 12),3,0.575,7.02
PSMB2 (proteasome 20S subunit beta 2),1,3.1,24.8
PSMB2 (proteasome 20S subunit beta 2),2,1.53,13.7
PSMB2 (proteasome 20S subunit beta 2),3,2.95,23.8

Targets listed so far whose target name begins with D or d (3):
Gene,reagent,G2 robust z-score,"G2 cells, % of GMNN control"
DSCR4 (Down syndrome critical region 4),1,2.05,17.4
DSCR4 (Down syndrome critical region 4),2,-0.101,2.26
DSCR4 (Down syndrome critical region 4),3,0.0432,3.27
